In this test the target is D(3) dopamine receptor (Homo sapiens, UniProt P35462). Nature of the test: biochemical.

Protein sequences, listed by entry. Tags and fused reporters are not part of them.
UniProt P35462, whole entry: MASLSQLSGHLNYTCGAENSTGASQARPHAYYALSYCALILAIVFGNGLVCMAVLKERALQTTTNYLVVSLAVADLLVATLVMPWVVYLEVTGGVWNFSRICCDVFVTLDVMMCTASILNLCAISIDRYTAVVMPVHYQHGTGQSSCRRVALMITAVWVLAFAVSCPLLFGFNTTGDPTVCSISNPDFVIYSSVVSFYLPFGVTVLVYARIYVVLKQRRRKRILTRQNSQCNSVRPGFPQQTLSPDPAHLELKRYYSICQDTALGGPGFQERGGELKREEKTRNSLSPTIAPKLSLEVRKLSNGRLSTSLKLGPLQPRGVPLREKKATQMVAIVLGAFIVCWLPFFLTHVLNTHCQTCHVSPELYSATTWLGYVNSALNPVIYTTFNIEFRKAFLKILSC

Experimental findings from ChEMBL document CHEMBL1145120, “Molecular modeling of the three-dimensional structure of dopamine 3 (D3) subtype receptor: discovery of novel and potent D3 ligands through a hybrid pharmacophore- and structure-based database searching approach” (J Med Chem, 2003) are described below.

Take `O=c1[nH]c2ccccc2n1CCCN1CCC(n2c(=O)[nH]c3cc(Cl)ccc32)CC1` [DOMPERIDONE]: affinity was put at a Ki of 3.5 nM.
